Key:
[1] = Evaluation by trained and/or certified flavor or fragrance chemists or master perfumers; categorization by commercial prospect; details: for Rating (category of commercial prospect): evaluation by trained flavor or fragrance chemists or master perfumers
odor evaluation panel = assay: Odor evaluation panel rating of odorants by Rate-All-That-Apply (RATA) method with 55-word odor lexicon, plus intensity and pleasantness; parameters: species or system human; details: for Floral: mean panelist score for odor label floral (RATA); for Fruity: mean panelist score for odor label fruity (RATA); for Spicy: mean panelist score for odor label spicy (RATA); for Sweet: mean panelist score for odor label sweet (RATA); for Pleasantness: mean panelist score for odor pleasantness

Row | Compound | Rating (category of commercial prospect) [1] | Floral (odor evaluation panel) | Fruity (odor evaluation panel) | Spicy (odor evaluation panel) | Sweet (odor evaluation panel) | Pleasantness (odor evaluation panel) | Rating ([1]; category of commercial prospect, (A) highest > (B) > (C) > (D) lowest, (E) requires further study)
1 | CNCC[C@H](O)c1cccs1 [Compound 917, (1S)-3-(methylamino)-1-thiophen-2-ylpropan-1-ol] | (A) | 0 | 0 | 0.057 | 0.143 | 6.211 | 
2 | Cc1occc1C(=O)O [Compound 918, 2-methylfuran-3-carboxylic acid] | (D) | 0 | 0.344 | 0.031 | 1.688 | 5.416 | 
3 | Cc1ccc(CC(=O)O)cc1 [Compound 920, 2-(4-methylphenyl)acetic acid] | (A) | 0.594 | 0.281 | 0.25 | 0.562 | 3.928 | 
4 | c1ccc2ocnc2c1 [Compound 926, 1,3-benzoxazole] | (A) | 0.306 | 0.417 | 0 | 1.167 |  | 
5 | CSCC(=O)O [Compound 927, 2-methylsulfanylacetic acid] | (D) | 0 | 0.156 | 0.281 | 0 | 3.194 | 
6 | CC(C)(C)OC(=O)c1ccc(N)cc1 [Compound 931, tert-butyl 4-aminobenzoate] | (D) | 0.111 | 0.056 | 0 | 0.111 |  | 
7 | NC(=O)Oc1ccccc1 [Compound 934, phenyl carbamate] | (D) | 0 | 0 | 0 | 0.139 |  | 
8 | c1ccc(C2=NCCO2)cc1 [Compound 941, 2-phenyl-4,5-dihydro-1,3-oxazole] | (D) | 0.314 | 0.571 | 0.114 | 1.086 | 5.94 | 
9 | N#CCCCN1CCCC1 [Compound 944, 4-pyrrolidin-1-ylbutanenitrile] | (D) | 0.312 | 0 | 0.125 | 0 | 4.259 | 
10 | N#CC1CCOCC1 [Compound 946, oxane-4-carbonitrile] | (D) | 0.914 | 1.457 | 0 | 1.886 | 5.92 | 
11 | O=c1cccccc1O [Compound 947, 2-hydroxycyclohepta-2,4,6-trien-1-one] | (D) | 0 | 0.156 | 0.75 | 1.312 | 4.647 | 
12 | CC(C)(C)c1ccccc1O [Compound 950, 2-tert-butylphenol] | (C) | 0.389 | 0 | 0.167 | 0.278 |  | 
13 | CSc1ccc(O)cc1C [Compound 952, 3-methyl-4-methylsulfanylphenol] | (D) | 0.257 | 0 | 0.029 | 0.229 | 3.789 | 
14 | N#CCCNC1CCCCC1 [Compound 954, 3-(cyclohexylamino)propanenitrile] | (D) | 0.056 | 0 | 0 | 0.083 |  | 
15 | Cc1ccccc1N1CCNCC1 [Compound 955, 1-(2-methylphenyl)piperazine] | (D) | 0 | 0 | 0 | 0 | 2.672 | 
16 | Cc1cc(=O)[nH]o1 [Compound 959, 5-methyl-1,2-oxazol-3-one] | (D) | 0 | 0 | 0.091 | 0.242 | 5.491 | 
17 | c1ccc(-c2ccncc2)nc1 [Compound 960, 2-pyridin-4-ylpyridine] | (D) | 0.125 | 0 | 0.281 | 0.25 | 3.472 | 

Row | Compound | Rating (category of commercial prospect) [1] | Floral (odor evaluation panel) | Fruity (odor evaluation panel) | Spicy (odor evaluation panel) | Sweet (odor evaluation panel) | Pleasantness (odor evaluation panel) | Rating ([1]; category of commercial prospect, (A) highest > (B) > (C) > (D) lowest, (E) requires further study)
18 | N#Cc1ccsc1 [Compound 961, thiophene-3-carbonitrile] | (D) | 0.406 | 1.438 | 1.469 | 2.281 | 6.547 | 
19 | CC(=O)Nc1ccc(N)cc1 [Compound 962, N-(4-aminophenyl)acetamide] | (D) | 0.067 | 0.2 | 0.2 | 0.567 | 5.24 | 
20 | CC1(C)Cc2cccc(O)c2O1 [Compound 963, 2,2-dimethyl-3H-1-benzofuran-7-ol] | (B) | 0 | 0 | 0.167 | 0.194 |  | 
21 | N#CCC(=O)c1ccccc1 [Compound 964, 3-oxo-3-phenylpropanenitrile] | (D) | 0.188 | 0.031 | 0.312 | 0.781 | 5.256 | 
22 | OCCSc1ccccn1 [Compound 965, 2-pyridin-2-ylsulfanylethanol] | (B) | 0 | 0.139 | 0 | 0 |  | 
23 | COC(=O)CCc1ccc(O)cc1 [Compound 968, methyl 3-(4-hydroxyphenyl)propanoate] | (B) | 0.781 | 0.125 | 0.438 | 0.906 | 4.469 | 
24 | CCN1CCCC1CN (centres unmarked) [Compound 971, (1-ethylpyrrolidin-2-yl)methanamine] | (D) | 0.062 | 0 | 0.125 | 0 | 4.106 | 
25 | Cc1cc(C)cc(C#N)c1 [Compound 974, 3,5-dimethylbenzonitrile] | (B) | 0.355 | 0.484 | 1.968 | 2.032 | 6.661 | 
26 | COc1ccc2c(c1)C(=O)CCC2 [Compound 976, 7-methoxy-3,4-dihydro-2H-naphthalen-1-one] | (B) | 0.086 | 0.143 | 0.171 | 0.143 | 4.826 | 
27 | CCC(C)(C)c1ccccc1 [Compound 982, 2-methylbutan-2-ylbenzene] | (C) | 0.097 | 0.032 | 0.613 | 0.323 | 4.955 | 
28 | N#CC1(c2ccccc2)CCCC1 [Compound 985, 1-phenylcyclopentane-1-carbonitrile] | (D) | 1.056 | 0.5 | 0.194 | 0.528 |  | 
29 | CC1(C)CC(=O)c2ccccc21 [Compound 988, 3,3-dimethyl-2H-inden-1-one] | (A) | 0.625 | 0.406 | 0.312 | 0.719 | 5.072 | 
30 | Cc1ccc([N+](=O)[O-])c(C)n1 [Compound 995, 2,6-dimethyl-3-nitropyridine] | (A) | 0 | 0 | 0 | 0.774 | 6.371 | 
31 | Cc1cccc(C(=O)O)c1 [Compound 999, 3-methylbenzoic acid] | (D) | 0.083 | 0 | 0.028 | 0.056 |  | 
32 | [(2S)-1-methoxy-3-[(2-methylpropan-2-yl)oxy]-1-oxopropan-2-yl]azanium [Compound 314] |  | 0.167 | 0.267 | 0.1 | 0.833 | 5.167 | (A)
33 | isobornyl methacrylate [Compound 615] | (D) |  | 0 | 0.371 | 0.286 | 6.111 | 

Source: patent US20250075147A1, “FRAGRANCE AND FLAVOR COMPOSITIONS COMPRISING NEW FLAVOR AND FRAGRANCE INGREDIENTS” (priority 2023, published 2025)
